# Reference: PubChem BioAssay AID624297 (National Center for Advancing Translational Sciences (NCATS), 2012)
# In all, about 340,000 compounds went through this assay and about 6,200 (1.8%) were called active. The call rests on the fitted dose curve; in most records, active means well fitted activation curve with a large enough effect; inconclusive means small, poorly fitted or top-dose-only effect; inactive means no such curve, though single readings can be large or run the other way. The inconclusive results got no clear call from the source. Potencies beside an inconclusive call are fits to weak or partial responses and may not hold up.
# Assay: A quantitative high throughput screen for small molecules that induce DNA re-replication in SW480 colon adenocarcinoma cells. Further: nearly all actives have a fitted effect of over 55% in size.
# Settings: Hoechst DNA content imaging, 48 h; series mostly up to 46.1 µM
# Source text: H Molecular Libraries Probe Production Network [MLPCN] NIH Chemical Genomics Center [NCGC] MLPCN Grant: Fast Track K99 CA136555 Assay Provider: Melvin DePamphilis, NICHD, NIH Assay Overview Eukaryotic cells normally restrict genome duplication to once per cell division. When this process is aberrant, DNA re-replication occurs when cells reinitiate DNA replication before the first round of replication is complete. DNA re-replication induces the DNA damage response, arrests cell proliferation, and triggers apoptosis. The cell cycle components cyclin A, Cdt-1, Cdc6 and geminin are critical regulators of this process and their misregulation results in DNA re-replication in normal and cancer cells. To identify compounds that induce re-replication in normal cells, an image-based assay was used to measure DNA content of nuclei, as detected by the fluorescent DNA binding dye, Hoechst. Cell nuclei were imaged by a fluorescence scanning plate imager and compounds that induce DNA re-replication were identified by the increase of nuclei with elevated fluorescence intensity
# For screening, 250 cells in 5 uL/well were dispensed into black clear 1536-well plates (Aurora) using a solenoid-based dispenser. Following transfer of 23 nL compound or DMSO vehicle by a pin tool, the plates were incubated 48 hr at 37 C and 5% CO2. After addition of 1 uL/well Hoescht stain, the plates were incubated 40 min at 37 C, 5% CO2 and total intensity of fluorescent objects (nuclei) were enumerated by an Acumen Explorer Ex3 (TTP LabTech) fluorescence scanning plate imager (405 nm excitation, 500-530 nm emission). Keywords: NIH Roadmap, MLPCN, MLI, MLSMR, qHTS, NCGC, DNA replication, cancer
# Potency means the concentration at half of the fitted maximal effect.
row,Structure (SMILES),Potency
1,O=C(Nc1ccc(-c2nc3ccccc3[nH]2)cc1)c1ccccc1NS(=O)(=O)c1ccc(F)cc1,"inconclusive: 29.1 µM [activator, single point]"
2,COc1cccc(C2C3=C(N=c4s/c(=C\c5ccc(OCC(=O)O)cc5)c(=O)n42)c2ccccc2CC3)c1 (stereo not drawn),"inconclusive: 16.4 µM [activator, single point]"
3,CCOC(=O)c1sc(N2C(=O)C(O)=C(C(=O)c3ccc(C)o3)C2c2cccc([N+](=O)[O-])c2)nc1C (stereo not drawn),"inconclusive: 18.4 µM [activator, single point]"
